Experimental data taken from the supplement of paper PMC8975748.
Where a name gives a salt, the structure may show the parent alone. ± gives the standard deviation of the averaged measurements. The list shows a part of the results. These are raw signals, not scaled to a control.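 A single yeast strain with four plasmids, each encoding a fluorescent protein and an amino-acid or uracil biosynthesis gene, seeds the community. Stochastic plasmid loss yields mixed prototroph and auxotroph subpopulations. Fixed cells were counted via automated confocal fluorescence imaging; DMSO-treated wells were the vehicle reference.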

Tested on: Saccharomyces cerevisiae BY4741 SeMeCo community
Assay: imaged cell count per well (cells); higher = more cells
Settings: 10 µM; 24 h; SM minimal medium
Protocol: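 Same SeMeCo high-content imaging drug screen: Selleck FDA-approved drugs at 10 µM, 24 h in SM medium, 384-well plates, 3 replicates.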

SMILES	imaged cell count per well
O=C1NC(=O)C(c2ccccc2)(c2ccccc2)N1 [Phenytoin]	23500 ± 4000
O=c1cc(-c2ccc(O)c(O)c2)oc2cc(O)cc(O)c12 [Luteolin]	26500 ± 1500
CCCc1nn(C)c2c(=O)[nH]c(-c3cc(S(=O)(=O)N4CCN(C)CC4)ccc3OCC)nc12 [Sildenafil Mesylate]	27700 ± 7300
CN(C)CC(c1ccc(O)cc1)C1(O)CCCCC1 (stereo not drawn) [Desvenlafaxine]	29200 ± 7800
CCn1cc(C(=O)O)c(=O)c2ccc(C)nc21 [Nalidixic acid]	25200 ± 2500
CN1C(C(=O)Nc2ccccn2)=C(O)c2sc(Cl)cc2S1(=O)=O [Lornoxicam]	26000 ± 7000
CC(=O)OCC1=C(C(=O)O)N2C(=O)[C@@H](NC(=O)CSC(=NC(C)C)NC(C)C)[C@H]2SC1 [Cefathiamidine]	31100 ± 2700
CCCc1nc(C)c2c(=O)nc(-c3cc(S(=O)(=O)N4CCN(CC)CC4)ccc3OCC)[nH]n12 [Vardenafil HCl Trihydrate]	19500 ± 2500
C[C@@H](O)[C@H]1C(=O)N2C(C(=O)O)=C(S[C@@H]3CN[C@H](C(=O)Nc4cccc(C(=O)O)c4)C3)[C@H](C)[C@H]12 [Ertapenem sodium]	33400 ± 7000
C=C1CCN([C@H](C)[C@](O)(Cn2cncn2)c2ccc(F)cc2F)CC1 [Efinaconazole]	5670 ± 790
CCN(CC)C(=O)C1(c2ccccc2)CC1CN (stereo not drawn) [Milnacipran HCl]	24000 ± 8500
CCOc1cc(N)c(Cl)cc1C(=O)NCC1CN(Cc2ccc(F)cc2)CCO1 (stereo not drawn) [Mosapride Citrate]	17100 ± 7100
CO[C@H]1/C=C/O[C@@]2(C)Oc3c(C)c(O)c4c(c3C2=O)C2=NC3(CCN(CC(C)C)CC3)NC2=C(NC(=O)/C(C)=C\C=C\[C@H](C)[C@H](O)[C@@H](C)[C@@H](O)[C@@H](C)[C@H](OC(C)=O)[C@@H]1C)C4=O [Rifabutin]	18200 ± 5300

Single entries from above:
In imaged cell count per well, O=C1NC(=O)C(c2ccccc2)(c2ccccc2)N1 [Phenytoin] has the entry 23500 ± 4000
In imaged cell count per well, C=C1CCN([C@H](C)[C@](O)(Cn2cncn2)c2ccc(F)cc2F)CC1 [Efinaconazole] has the entry 5670 ± 790
